Reference: publication doi:10.1101/2020.12.14.422713
Numbering of substitutions follows the chain as printed. No constants are given. Whether binding was seen depends on the method and setting. Binding seen in cells or lysates may run through a third protein. Binding calls can cover weak binding; strength is not graded here. Where a sequence is shown, tags or fusion partners need not be part of it.

What was measured:
[1] = target: T1, cLUC-PhS3-RNase (wild type) (Petunia hybrida) (UniProt Q40875); test: split reporter
T1 sequence: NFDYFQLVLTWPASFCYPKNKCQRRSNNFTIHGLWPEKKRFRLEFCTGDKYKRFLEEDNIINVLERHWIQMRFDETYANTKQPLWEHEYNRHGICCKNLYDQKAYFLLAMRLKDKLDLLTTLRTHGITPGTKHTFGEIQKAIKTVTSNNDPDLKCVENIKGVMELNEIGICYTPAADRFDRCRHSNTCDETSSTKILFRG

[2] = target: T2, cLUC-PhS3-RNase MI (T102A, K103R) (Petunia hybrida) (UniProt Q40875); test: split reporter
T2 sequence: T1 sequence with T80A, K81R

[3] = target: T3, cLUC-PhS3-RNase MII (T153A, K154R, K217R) (Petunia hybrida) (UniProt Q40875); test: split reporter
T3 sequence: T1 sequence with T131A, K132R, K195R

[4] = target: T4, cLUC-PhS3-RNase MK (K103R, K154R, K217R) (Petunia hybrida) (UniProt Q40875); test: split reporter
T4 sequence: T1 sequence with K81R, K132R, K195R

[5] = target: T5, cLUC-PhS3-RNase MT (T102A, T153A) (Petunia hybrida) (UniProt Q40875); test: split reporter
T5 sequence: T1 sequence with T80A, T131A

[6] = target: T6, MBP-tagged PhS3-RNase (wild type, without signal peptide) (Petunia hybrida) (UniProt Q40875); test: pull-down
T6 sequence: T1 sequence

[7] = target: T7, MBP-tagged PhS3-RNase MI (T102A, K103R; without signal peptide) (Petunia hybrida) (UniProt Q40875); test: pull-down
T7 sequence: T1 sequence with T80A, K81R

[8] = target: T8, MBP-tagged PhS3-RNase MII (T153A, K154R, K217R; without signal peptide) (Petunia hybrida) (UniProt Q40875); test: pull-down
T8 sequence: T1 sequence with T131A, K132R, K195R

[9] = target: T9, MBP-tagged PhS3-RNase MK (K103R, K154R, K217R; without signal peptide) (Petunia hybrida) (UniProt Q40875); test: pull-down
T9 sequence: T1 sequence with K81R, K132R, K195R

[10] = target: T10, MBP-tagged PhS3-RNase MT (T102A, T153A; without signal peptide) (Petunia hybrida) (UniProt Q40875); test: pull-down
T10 sequence: T1 sequence with T80A, T131A

[11] = target: T11, cYFP-PhS3-RNase (wild type, without signal peptide) (Petunia hybrida) (UniProt Q40875); test: split reporter
T11 sequence: T1 sequence

[12] = target: T12, cYFP-PhS3-RNase MI (T102A, K103R; without signal peptide) (Petunia hybrida) (UniProt Q40875); test: split reporter
T12 sequence: T1 sequence with T80A, K81R

[13] = target: T13, cYFP-PhS3-RNase MII (T153A, K154R, K217R; without signal peptide) (Petunia hybrida) (UniProt Q40875); test: split reporter
T13 sequence: T1 sequence with T131A, K132R, K195R

[14] = target: T14, cYFP-PhS3-RNase MK (K103R, K154R, K217R; without signal peptide) (Petunia hybrida) (UniProt Q40875); test: split reporter
T14 sequence: T1 sequence with K81R, K132R, K195R

[15] = target: T15, cYFP-PhS3-RNase MT (T102A, T153A; without signal peptide) (Petunia hybrida) (UniProt Q40875); test: split reporter
T15 sequence: T1 sequence with T80A, T131A

Row | binding [1] | binding [2] | binding [3] | binding [4] | binding [5] | Substance | also measured
1 | binds | binds | binds | binds | binds | PhS3LSLF1-nLUC (Petunia hybrida) | –
2 | binds | binds weakly | binds weakly | binds | binds | PhS3SLF1-nLUC (Petunia hybrida) | –
3 | – | – | – | – | – | SUMO-His-PhS3LSLF1 (Petunia hybrida) | binding [6]: binds; binding [7]: binds; binding [8]: binds; binding [9]: binds; binding [10]: binds
4 | – | – | – | – | – | nYFP-PhS3LSLF1 (Petunia hybrida) | binding [11]: binds; binding [12]: binds; binding [13]: binds; binding [14]: binds; binding [15]: binds
